{"source": "paper PMC4207616", "target": "T1, RRS1^SH-AA-His-Flag (Arabidopsis thaliana) (UniProt C4B7M5)", "T1 sequence": "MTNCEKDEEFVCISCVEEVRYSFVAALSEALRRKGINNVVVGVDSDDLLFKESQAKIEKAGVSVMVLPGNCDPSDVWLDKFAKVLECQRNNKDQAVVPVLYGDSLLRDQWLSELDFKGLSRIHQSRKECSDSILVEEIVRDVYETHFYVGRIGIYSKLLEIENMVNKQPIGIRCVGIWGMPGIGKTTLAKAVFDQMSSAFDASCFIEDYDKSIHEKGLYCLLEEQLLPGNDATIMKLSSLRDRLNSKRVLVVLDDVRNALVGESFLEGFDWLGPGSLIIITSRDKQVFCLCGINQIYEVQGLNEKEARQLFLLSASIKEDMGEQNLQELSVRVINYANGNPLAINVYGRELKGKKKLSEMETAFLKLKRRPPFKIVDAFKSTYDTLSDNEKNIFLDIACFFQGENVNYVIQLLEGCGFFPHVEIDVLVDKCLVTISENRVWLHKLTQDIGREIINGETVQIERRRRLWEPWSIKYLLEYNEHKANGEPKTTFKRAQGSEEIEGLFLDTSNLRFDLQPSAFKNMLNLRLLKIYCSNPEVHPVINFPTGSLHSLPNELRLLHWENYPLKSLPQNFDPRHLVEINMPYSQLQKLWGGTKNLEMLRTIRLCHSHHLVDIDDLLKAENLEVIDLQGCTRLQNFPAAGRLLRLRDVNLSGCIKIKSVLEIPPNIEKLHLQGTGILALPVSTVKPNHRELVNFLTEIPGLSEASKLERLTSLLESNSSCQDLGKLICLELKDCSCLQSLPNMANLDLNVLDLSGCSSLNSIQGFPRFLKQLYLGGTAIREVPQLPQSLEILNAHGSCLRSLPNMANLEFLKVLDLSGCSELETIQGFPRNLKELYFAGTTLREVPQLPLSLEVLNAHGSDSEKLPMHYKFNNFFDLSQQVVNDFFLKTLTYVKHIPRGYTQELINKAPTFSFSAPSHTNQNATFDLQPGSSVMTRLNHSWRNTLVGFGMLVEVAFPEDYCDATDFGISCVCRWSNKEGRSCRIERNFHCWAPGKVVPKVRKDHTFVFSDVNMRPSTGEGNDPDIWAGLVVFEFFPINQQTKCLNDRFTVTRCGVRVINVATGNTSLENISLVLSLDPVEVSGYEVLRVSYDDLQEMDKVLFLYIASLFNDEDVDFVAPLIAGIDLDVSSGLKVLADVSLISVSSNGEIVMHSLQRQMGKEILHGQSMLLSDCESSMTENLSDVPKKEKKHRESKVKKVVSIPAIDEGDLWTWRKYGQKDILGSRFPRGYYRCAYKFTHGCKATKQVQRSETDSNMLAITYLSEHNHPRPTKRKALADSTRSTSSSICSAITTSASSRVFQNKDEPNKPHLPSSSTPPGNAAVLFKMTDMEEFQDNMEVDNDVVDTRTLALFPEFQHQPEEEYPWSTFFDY", "assay": "co-IP; RRS1-His-Flag and RPS4-HA variants transiently co-expressed in N. benthamiana (48 h after agroinfiltration); extract in GTEN buffer (10% glycerol, 100 mM Tris-HCl pH 7.5, 1 mM EDTA, 150 mM NaCl) with 5 mM DTT, protease inhibitors, 0.2% Nonidet P-40; anti-FLAG M2 or anti-HA affinity gel, 2 h at 4°C; immunoblot", "note": "These are yes or no findings as the source states them, for the method shown. In cells and extracts the contact can be indirect. Some results given as binding are weak or reduced against the parent protein; the word gives no strength. Where a sequence is shown, tags or fusion partners need not be part of it.", "data": [{"binder": "RPS4^WT-HA (protein, UniProt Q9XGM3 1-1217) METSSISTVEDKPPQHQVFINFRGADLRRRFVSHLVTALKLNNINVFIDDYEDRGQPLDVLLKRIEESKIVLAIFSGNYTESVWCVRELEKIKDCTDEGTLVAIPIFYKLEPSTVRDLKGKFGDRFRSMAKGDERKKKWKEAFNLIPNIMGIIIDKKSVESEKVNEIVKAVKTALTGIPPEGSHNAVVGALGNSNAGTSSGDKKHETFGNEQRLKDLEEKLDRDKYKGTRIIGVVGMPGIGKTTLLKELYKTWQGKFSRHALIDQIRVKSKHLELDRLPQMLLGELSKLNHPHVDNLKDPYSQLHERKVLVVLDDVSKREQIDALREILDWIKEGKEGSRVVIATSDMSLTNGLVDDTYMVQNLNHRDSLQLFHYHAFIDDQANPQKKDFMKLSEGFVHYARGHPLALKVLGGELNKKSMDHWNSKMKKLAQSPSPNIVSVFQVSYDELTTAQKDAFLDIACFRSQDKDYVESLLASSDLGSAEAMSAVKSLTDKFLINTCDGRVEMHDLLYKFSREVDLKASNQDGSRQRRLWLHQHIIKGGIINVLQNKMKAANVRGIFLDLSEVEDETSLDRDHFINMGNLRYLKFYNSHCPQECKTNNKINIPDKLKLPLKEVRCLHWLKFPLETLPNDFNPINLVDLKLPYSEMEQLWEGDKDTPCLRWVDLNHSSKLCSLSGLSKAEKLQRLNLEGCTTLKAFPHDMKKMKMLAFLNLKGCTSLESLPEMNLISLKTLTLSGCSTFKEFPLISDNIETLYLDGTAISQLPMNMEKLQRLVVLNMKDCKMLEEIPGRVGELKALQELILSDCLNLKIFPEIDISFLNILLLDGTAIEVMPQLPSVQYLCLSRNAKISCLPVGISQLSQLKWLDLKYCTSLTSVPEFPPNLQCLDAHGCSSLKTVSKPLARIMPTEQNHSTFIFTNCENLEQAAKEEITSYAQRKCQLLSYARKRYNGGLVSESLFSTCFPGCEVPSWFCHETVGSELEVKLLPHWHDKKLAGIALCAVVSCLDPQDQVSRLSVTCTFKVKDEDKSWVAYTCPVGSWTRHGGGKDKIELDHVFIGYTSCPHTIKCHEEGNSDECNPTEASLKFTVTGGTSENGKYKVLKCGLSLVYAKDKDKNSALETKYDMLIGKSFQETSEGVDGRVKKTKGKYVMPVEKNFQETTEGVDGRVNKKKKTRMDNGRPKKKQRSGRDDNQTRMQVELQEGNINSVIMHTVKNF", "values": [{"measurement": "binding", "result": "binds"}]}]}
